Record: PubChem BioAssay AID504791 (Drosophila RNAi Screening Center, 2011)

Aim: 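Factors in Argonaute-based small RNA production and activity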 (primary screen)
System: Drosophila S2-derived reporter cells
Knock-down reagent: long dsRNA against Drosophila genes, about 150-250 ng dsRNA per well (siRNA assay); about 80-120 ng (miRNA assay)
Timing: about 5 days (siRNA assay); about 4 days (miRNA assay)
Challenge: copper sulfate induction of reporters: 25 µM (siRNA assay); 200 mM stated (miRNA assay), 1-2 days before reading
Detection: 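Dual luciferase assay: Renilla to firefly signal ratio in each well, scaled to the mean ratio of its plate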
Hit rule: 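First-pass picks had plate-scaled ratios over 1.5 for the siRNA assay, over 1.6 for the miRNA assay, or under 0.6; two distinct dsRNAs had to score alike on retest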
The deposit covers about 23,000 reagents; this is an unselected part of those that have a named target and a result. In the full data, 199 (0.86%) were called active. 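Plate-scaled ratios behind the calls are not deposited; printed light signals are raw; many rows marked increased or decreased are still called inactive.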 Reagents against one gene are numbered here. A plus sign joins genes that one reagent is predicted to hit. The record does not give: the direction of the score.

no.	gene	reagent no.	stable siRNA reporter change	miRNA reporter change	stable assay Renilla, run 1 (luminescence)	stable assay firefly, run 1 (luminescence)	call
1	Elk (Eag-like K[+] channel)	1			13954	6.42e5	inactive
2	Polr2C (RNA polymerase II subunit C)	1			5320	1.07e6	inactive
3	bdwf (bedwarfed)	1			9363	3.24e5	inactive
4	unc-5	1			5299	3.64e5	inactive
5	unc-5	2			4471	2.90e5	inactive
6	unc-5	3			5215	2.73e5	inactive
7	Rcd1 (Reduction in Cnn dots 1)	1			12766	4.71e5	inactive
8	Ipk1 (Inositol phosphate kinase 1)	1			10654	1.10e6	inactive
9	Ipk1 (Inositol phosphate kinase 1)	2			6575	3.22e5	inactive
10	Ipk1 (Inositol phosphate kinase 1)	3			6600	3.46e5	inactive
11	Rca1 (Regulator of cyclin A1)	1			8535	3.72e5	inactive
12	Cyp28c1 (Cytochrome P450 28c1)	1			5407	3.49e5	inactive
13	CG15564	1			6855	4.13e5	inactive
14	fwd (four wheel drive)	1			8612	2.59e5	inactive
15	CG32213 + CG12519 + 825-Oak + 1 more	1			6043	4.22e5	inactive
16	Crtc (CREB-regulated transcription coactivator)	1	reporter ratio raised past the hit cutoff		7006	2.28e5	inactive
17	Crtc (CREB-regulated transcription coactivator)	2			4211	2.71e5	inactive
18	CG3335	1			4967	2.73e5	inactive
19	Aps (Aps pyrophosphatase)	1			4740	2.64e5	inactive
20	Adgf-C (Adenosine deaminase-related growth factor C)	1			7459	3.57e5	inactive
21	CG14518	1			5747	3.19e5	inactive
22	Srrm1 (Serine-arginine repetitive matrix 1)	1			5750	3.15e5	inactive
23	CG8565	1			7299	5.26e5	inactive
24	CG34263	1			4772	4.70e5	inactive
25	CG9316	1			7638	3.83e5	inactive
26	kud (kuduk)	1			8191	4.59e5	inactive
27	Pex11ab (Peroxin 11a/b)	1			6955	3.82e5	inactive
28	CG6738	1			8534	3.82e5	inactive
29	GlnRS (Glutaminyl-tRNA synthetase)	1			7448	6.66e5	inactive
30	CG14950 (retired record)	1			6111	3.62e5	inactive
31	CG2100	1			10166	5.71e5	inactive
32	mRpL13 (mitochondrial ribosomal protein L13)	1			6976	4.76e5	inactive
33	CG9795	1			9285	3.24e5	inactive
34	nAChRalpha7 (nicotinic Acetylcholine Receptor alpha7)	1			5915	3.78e5	inactive
35	nAChRalpha7 (nicotinic Acetylcholine Receptor alpha7)	2			5204	3.00e5	inactive
36	CG17249	1			10150	3.47e5	inactive
37	Mettl2 (Methyltransferase like 2)	1			10806	4.13e5	inactive
38	dpr1 (defective proboscis extension response 1)	1			6436	5.47e5	inactive
39	dpr1 (defective proboscis extension response 1)	2			6415	4.39e5	inactive
40	CG15194 (retired record)	1			5479	4.71e5	inactive
41	CG15194 (retired record)	2			5324	4.66e5	inactive
42	Sod1 (Superoxide dismutase 1)	1			5551	3.80e5	inactive
43	pic (piccolo)	1			7204	6.17e5	inactive
44	Cyp1 (Cyclophilin 1)	1			8656	6.15e5	inactive
45	CG7829	1			6004	3.07e5	inactive
46	CG17024 (retired record)	1			7356	4.76e5	inactive
47	DCAF12 (DDB1 and CUL4 associated factor 12)	1			8326	4.18e5	inactive
48	Mys45A (Mystery 45A)	1			9408	3.66e5	inactive
49	CG8726	1			7710	3.60e5	inactive
50	PIG-U (Phosphatidylinositol glycan anchor biosynthesis class U)	1			6463	7.32e5	inactive
51	dgt5 (dim gamma-tubulin 5)	1			8881	5.19e5	inactive
52	Targ (Tarag)	1			5890	3.36e5	inactive
53	barc (barricade)	1			9518	5.61e5	inactive
54	BG642163	1			6690	3.31e5	inactive
55	BG642163	2			6542	3.22e5	inactive
56	CG30440	1			7166	6.84e5	inactive
57	CG30440	2			5543	4.12e5	inactive
58	CG30440	3		reporter ratio lowered past the hit cutoff	6270	3.69e5	inactive
59	Mnn1 (Menin 1)	1			6983	4.02e5	inactive
60	CG5800	1			5859	4.40e5	inactive
61	CG8738	1			6171	3.42e5	inactive
62	AdipoR (Adiponectin receptor)	1			10025	3.34e5	inactive
63	Edem1 (ER degradation enhancer, mannosidase alpha-like 1)	1			7432	4.07e5	inactive
64	CG16781	1			6318	4.76e5	inactive
65	swi2	1			6994	3.55e5	inactive
66	Rab1	1			6560	3.78e5	inactive
67	CG13681 (retired record)	1			4944	4.92e5	inactive
68	CG13681 (retired record)	2			4796	3.91e5	inactive
69	CG13681 (retired record)	3			6283	3.42e5	inactive
70	CG13681 (retired record)	4			5560	2.95e5	inactive
71	CG13681 (retired record)	5			6115	3.71e5	inactive
72	CG13681 (retired record)	6			8416	3.64e5	inactive
73	CG4968	1			91624	4.53e5	inactive
74	Alp8 (Alkaline phosphatase 8)	1			5906	5.24e5	inactive
75	GstD7 (Glutathione S transferase D7)	1			4224	6.17e5	inactive
76	Rab40	1			5291	4.68e5	inactive
77	spdi (split discs)	1			8153	4.43e5	inactive
78	spdi (split discs)	2			7511	3.85e5	inactive
79	CG14684	1			6610	3.53e5	inactive
80	Tengl1 (Testis EndoG-Like 1)	1			7994	3.71e5	inactive
81	Hex-t1 (Hexokinase testis 1)	1			7315	3.88e5	inactive
82	CG32444	1			8693	3.29e5	inactive
83	CG42748	1			6343	3.47e5	inactive
84	CG42748	2			6395	2.89e5	inactive
85	CG42748	3			6758	3.57e5	inactive

4 neighbouring records already listed, for reference:
no.	gene	reagent no.	stable siRNA reporter change	miRNA reporter change	stable assay Renilla, run 1 (luminescence)	stable assay firefly, run 1 (luminescence)	call
35	nAChRalpha7 (nicotinic Acetylcholine Receptor alpha7)	2			5204	3.00e5	inactive
36	CG17249	1			10150	3.47e5	inactive
37	Mettl2 (Methyltransferase like 2)	1			10806	4.13e5	inactive
38	dpr1 (defective proboscis extension response 1)	1			6436	5.47e5	inactive
